# Results as given in the supplement of paper PMC12823440, “Inhibitors supercharge kinase turnover through native proteolytic circuits” (Nature, 2025).
# The chains behind the UniProt entries cited, without tags or fusion partners.
# UniProt Q05397, whole entry, looked up: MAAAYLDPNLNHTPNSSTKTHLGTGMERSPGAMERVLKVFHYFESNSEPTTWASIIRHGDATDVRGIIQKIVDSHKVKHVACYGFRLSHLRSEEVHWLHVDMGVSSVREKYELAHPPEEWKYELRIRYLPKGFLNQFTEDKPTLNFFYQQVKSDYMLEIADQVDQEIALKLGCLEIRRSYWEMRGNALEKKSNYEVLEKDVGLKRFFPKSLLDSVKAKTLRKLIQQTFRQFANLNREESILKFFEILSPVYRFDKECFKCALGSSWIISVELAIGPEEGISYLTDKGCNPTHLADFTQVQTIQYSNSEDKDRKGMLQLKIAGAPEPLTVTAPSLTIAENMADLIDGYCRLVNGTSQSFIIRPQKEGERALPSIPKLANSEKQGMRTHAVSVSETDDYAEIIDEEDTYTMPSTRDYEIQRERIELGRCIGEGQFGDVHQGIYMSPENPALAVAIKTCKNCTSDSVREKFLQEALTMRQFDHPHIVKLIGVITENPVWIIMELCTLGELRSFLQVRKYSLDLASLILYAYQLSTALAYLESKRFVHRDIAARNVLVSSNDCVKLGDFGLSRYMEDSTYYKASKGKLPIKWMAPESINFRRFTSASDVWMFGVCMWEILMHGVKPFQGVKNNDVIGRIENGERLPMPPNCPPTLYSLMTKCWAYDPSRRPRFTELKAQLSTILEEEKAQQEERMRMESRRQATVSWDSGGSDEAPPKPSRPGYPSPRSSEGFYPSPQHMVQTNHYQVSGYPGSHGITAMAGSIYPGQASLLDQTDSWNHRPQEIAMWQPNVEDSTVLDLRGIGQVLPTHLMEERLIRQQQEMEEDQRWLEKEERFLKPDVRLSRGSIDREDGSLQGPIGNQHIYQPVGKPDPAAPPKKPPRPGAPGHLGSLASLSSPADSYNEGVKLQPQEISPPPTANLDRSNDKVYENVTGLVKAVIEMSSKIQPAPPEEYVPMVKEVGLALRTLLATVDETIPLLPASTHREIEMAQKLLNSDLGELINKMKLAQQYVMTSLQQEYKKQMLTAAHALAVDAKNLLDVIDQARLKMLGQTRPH
# UniProt Q14289, whole entry, looked up: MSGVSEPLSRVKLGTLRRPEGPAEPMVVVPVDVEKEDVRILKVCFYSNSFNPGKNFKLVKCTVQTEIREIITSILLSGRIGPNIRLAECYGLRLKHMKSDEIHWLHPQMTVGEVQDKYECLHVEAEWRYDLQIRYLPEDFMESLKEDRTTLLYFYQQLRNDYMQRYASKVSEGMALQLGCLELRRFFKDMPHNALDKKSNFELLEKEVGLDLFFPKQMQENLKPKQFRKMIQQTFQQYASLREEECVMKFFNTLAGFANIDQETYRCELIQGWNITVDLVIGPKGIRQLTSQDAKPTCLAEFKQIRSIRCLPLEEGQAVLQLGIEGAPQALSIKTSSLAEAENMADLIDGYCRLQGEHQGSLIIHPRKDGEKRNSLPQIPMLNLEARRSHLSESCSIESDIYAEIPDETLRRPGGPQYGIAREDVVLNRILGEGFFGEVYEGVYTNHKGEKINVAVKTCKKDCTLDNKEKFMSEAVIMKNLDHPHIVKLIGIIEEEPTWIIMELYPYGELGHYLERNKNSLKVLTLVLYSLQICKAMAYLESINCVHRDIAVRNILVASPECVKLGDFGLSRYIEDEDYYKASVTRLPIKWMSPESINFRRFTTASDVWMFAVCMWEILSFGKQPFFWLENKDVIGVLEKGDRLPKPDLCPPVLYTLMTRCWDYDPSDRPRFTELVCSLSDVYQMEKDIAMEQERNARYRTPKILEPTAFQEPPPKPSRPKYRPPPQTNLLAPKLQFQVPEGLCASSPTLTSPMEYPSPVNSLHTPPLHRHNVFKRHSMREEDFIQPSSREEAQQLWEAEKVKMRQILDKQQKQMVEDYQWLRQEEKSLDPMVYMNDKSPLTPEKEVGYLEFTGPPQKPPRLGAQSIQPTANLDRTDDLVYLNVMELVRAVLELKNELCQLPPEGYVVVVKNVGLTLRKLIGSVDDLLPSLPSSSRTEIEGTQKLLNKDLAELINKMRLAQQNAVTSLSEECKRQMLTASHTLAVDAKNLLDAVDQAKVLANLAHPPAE
# Counter-ions that a name gives are not always drawn. Some of the results follow. The calls rarely recur for the same compound in another form.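 Kinases, fused to nanoluciferase, were expressed in K562 cells; luminescence was measured every 4 h from 2 to 18 h as percent of control (DMSO = 100%, positive control = 0%). A time point is decreased if signal falls significantly (2 sigma). Hits were called by the authors by a rule that is not shown; the count of time points alone does not decide it.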
# Target: PTK2 (UniProt Q05397)
# Assay: number of time points (of 5) at which kinase-Nluc abundance scored as decreased, DMSO-normalised (count); higher = more persistent destabilization
# Conditions: K562; 2-18 h
row,Structure (SMILES),number of time points
1,CCC[C@H](C)Oc1nc(N)c2[nH]c(=O)n(CCCCCN3CCCCC3)c2n1 (10 µM),0
2,CC(C)(Oc1ccc(Cl)cc1)C(=O)Nc1ccc(OCc2ccc(C#N)cc2)cc1 [AMPK activator 4] (10 µM),0
3,Cc1cc(N2CCOCC2)ccc1Nc1nc(NC2CCCCC2)c2[nH]cnc2n1 (10 µM),0
4,CC(ONC(=O)c1cc(C(F)(F)F)cc(C(F)(F)F)c1)C(=O)Nc1ccc(Cl)cc1 (centres undefined) (2.5 µM),5
5,O=S(=O)(c1ccc(O)cc1O)N1Cc2cc(O)cc(O)c2C1 (10 µM),0
6,CN1CCN(c2ccc(-n3cc(-c4ccncc4OCC4CCNCC4)cn3)cc2)CC1 [MELK-8a (hydrochloride)] (10 µM),1
7,CCCCC(=O)OCC(=O)[C@]1(O)Cc2c(O)c3c(c(O)c2[C@@H](O[C@H]2C[C@H](NC(=O)C(F)(F)F)[C@H](O)[C@H](C)O2)C1)C(=O)c1c(OC)cccc1C3=O [Valrubicin] (10 µM),0
8,CC(C)=CCC[C@](C)(O[C@@H]1O[C@H](CO[C@@H]2O[C@H](CO)[C@@H](O)[C@H](O)[C@H]2O)[C@@H](O)[C@H](O)[C@H]1O)[C@H]1CC[C@]2(C)[C@@H]1[C@H](O)C[C@@H]1[C@@]3(C)CC[C@H](O[C@@H]4O[C@H](CO)[C@@H](O)[C@H](O)[C@H]4O[C@@H]4O[C@H](CO)[C@@H](O)[C@H](O)[C@H]4O)C(C)(C)[C@@H]3CC[C@]12C [Ginsenoside Rb1] (10 µM),0
9,O=c1cc(-c2ccc(O[C@@H]3O[C@H](CO)[C@@H](O)[C@H](O)[C@H]3O)cc2)oc2cc(O)c([C@@H]3O[C@H](CO)[C@@H](O)[C@H](O)[C@H]3O[C@@H]3OC[C@H](O)[C@H](O)[C@H]3O)c(O)c12 [Vaccarin] (10 µM),0
10,Nc1ccc(Sc2nc3ccccc3s2)c(Cl)c1 [KRAS inhibitor-9] (10 µM),0
11,COc1ccc2cc1Oc1ccc(cc1)C[C@H]1c3cc(c(OC)cc3CCN1C)Oc1c(O)c(OC)cc3c1[C@H](C2)N(C)CC3 [Fangchinoline] (2.5 µM),0
12,Nc1nccc(Oc2ccc3c(C(=O)Nc4cccc(C(F)(F)F)c4)cccc3c2)n1 (10 µM),0
13,CN1C(=O)N[C@@H](Cc2c[nH]c3c(Cl)cccc23)C1=O [Necrostatin 2 (S enantiomer)] (10 µM),0
14,Cc1ncc(-c2cc(F)c(O)c(F)c2)cc1-c1cc(F)c(O)c(F)c1 (10 µM),0
15,N=C(NC(=N)N1CCCC1)Nc1ccc(OC(F)(F)F)cc1 (10 µM),0

# Target: PTK2B (UniProt Q14289)
# Assay: as above
# Conditions: K562; 2-18 h
row,Structure (SMILES),number of time points
1,COc1ccc(Br)c(C=O)c1O [6-Bromo-2-hydroxy-3-methoxybenzaldehyde] (10 µM),0
2,O=C1C=CC2=C3c4cc(O)c(O)cc4CC3(O)COC2=C1O (centres undefined) [Hematein] (10 µM),0
3,Cc1cccc(CC(=O)N2CCc3c2ccc(-c2cn(C)c4ncnc(N)c24)c3F)n1 (10 µM),0
4,COCCOc1cnc2ccn([C@H](C)c3nnc4c(F)cc(-c5cnn(C)c5)cn34)c(=O)c2c1 (10 µM),0
5,Cn1cc(C2=C(c3ccc(Cl)cc3Cl)C(=O)NC2=O)c2ccccc21 (10 µM),0
6,COc1cc(N2CCC(N3CCN(C)CC3)CC2)ccc1Nc1ncnc(Nc2ccccc2S(=O)(=O)C(C)C)n1 (10 µM),0
7,COc1c(Nc2ncc(Cl)c(N[C@H]3[C@@H](C(N)=O)[C@@H]4C=C[C@H]3C4)n2)ccc2c1CC[C@@H](N1CCOCC1)CC2 (10 µM),0
8,Cc1ccc(NC(=O)N2CCN(c3nc(N)nc4sc(-c5cccnc5)nc34)CC2)cc1 [PI4KIII beta inhibitor 3] (10 µM),0
9,CNc1cc2c(Nc3cccc(Br)c3)ncnc2cn1 (10 µM),0
10,CC(C)n1c(CO)nc2c(F)cc(-c3nc(Nc4ccc(CN5CCNCC5)cn4)ncc3F)cc21 (10 µM),0
11,CN1CCC(Nc2ccc(C(=O)Nc3cc(-c4ccc5c(c4)OCO5)[nH]n3)cc2)CC1 (10 µM),0
12,CNC(=O)CN1CCC(Oc2cc3c(Nc4cccc(Cl)c4F)ncnc3cc2OC)CC1 [Sapitinib] (10 µM),0
13,O=C(O)c1c[nH]c2cc(Cl)c(-c3ccc(C4(O)CCC4)cc3)cc12 (10 µM),0
14,COc1cc(N2CCC(O)CC2)ccc1Nc1nc(Nc2ccccc2S(=O)(=O)C(C)C)c2[nH]cnc2n1 (10 µM),0
15,O=c1c(O)c(-c2ccc(O)c(O)c2)oc2cc(O)c(O)c(O)c12 [Quercetagetin] (10 µM),0
16,Cc1ncsc1-c1ccc(CNC(=O)[C@@H]2C[C@@H](O)CN2C(=O)[C@@H](NC(=O)COCCOc2ccc(-c3cc(Nc4ccc(OC(F)(F)F)cc4)ncn3)cc2)C(C)(C)C)cc1 (2.5 µM),1
17,COc1cc(Nc2ccnc3ccc(Br)cc23)cc(OC)c1OC (2.5 µM),0
18,Cc1ccc2c(NS(=O)(=O)c3ccccc3Cl)cccc2c1Oc1ncccc1-c1ccnc(N[C@H]2CCCNC2)n1 (2.5 µM),0
19,CC(C)c1cc2c(c(O)c1O)[C@@]13CCCC(C)(C)[C@@H]1C[C@@H]2OC3=O [Carnosol] (2.5 µM),0
20,Cc1nc2c(NCc3cccc(S(C)(=O)=O)c3)nccn2c1-c1ccc(O)c(F)c1 (10 µM),0

row,Structure (SMILES),number of time points
1,CC(C)n1cnc2c(Nc3cccc(Cl)c3)nc(N[C@H]3CCCC[C@@H]3N)nc21 (2.5 µM),0
2,O=c1cc(N2CCOCC2)oc2c(-c3cccc4c3sc3ccccc34)cccc12 (10 µM),0
3,C[C@@H]1COC(Nc2ccc3ncnc(Nc4ccc(OCc5nccs5)c(Cl)c4)c3c2)=N1 [Varlitinib] (10 µM),0
4,Cc1cncc2cccc(S(=O)(=O)N3CCCNC[C@@H]3C)c12 [H-1152 (dihydrochloride)] (10 µM),0
5,CCC[C@H](C)Oc1nc(N)c2[nH]c(=O)n(CCCCCN3CCCCC3)c2n1 (10 µM),0
6,CC(C)(Oc1ccc(Cl)cc1)C(=O)Nc1ccc(OCc2ccc(C#N)cc2)cc1 [AMPK activator 4] (10 µM),0
7,Cc1cc(N2CCOCC2)ccc1Nc1nc(NC2CCCCC2)c2[nH]cnc2n1 (10 µM),0
8,CC(ONC(=O)c1cc(C(F)(F)F)cc(C(F)(F)F)c1)C(=O)Nc1ccc(Cl)cc1 (centres undefined) (2.5 µM),0
9,O=S(=O)(c1ccc(O)cc1O)N1Cc2cc(O)cc(O)c2C1 (10 µM),0
10,CN1CCN(c2ccc(-n3cc(-c4ccncc4OCC4CCNCC4)cn3)cc2)CC1 [MELK-8a (hydrochloride)] (10 µM),1
11,CCCCC(=O)OCC(=O)[C@]1(O)Cc2c(O)c3c(c(O)c2[C@@H](O[C@H]2C[C@H](NC(=O)C(F)(F)F)[C@H](O)[C@H](C)O2)C1)C(=O)c1c(OC)cccc1C3=O [Valrubicin] (10 µM),0
12,CC(C)=CCC[C@](C)(O[C@@H]1O[C@H](CO[C@@H]2O[C@H](CO)[C@@H](O)[C@H](O)[C@H]2O)[C@@H](O)[C@H](O)[C@H]1O)[C@H]1CC[C@]2(C)[C@@H]1[C@H](O)C[C@@H]1[C@@]3(C)CC[C@H](O[C@@H]4O[C@H](CO)[C@@H](O)[C@H](O)[C@H]4O[C@@H]4O[C@H](CO)[C@@H](O)[C@H](O)[C@H]4O)C(C)(C)[C@@H]3CC[C@]12C [Ginsenoside Rb1] (10 µM),0
13,O=c1cc(-c2ccc(O[C@@H]3O[C@H](CO)[C@@H](O)[C@H](O)[C@H]3O)cc2)oc2cc(O)c([C@@H]3O[C@H](CO)[C@@H](O)[C@H](O)[C@H]3O[C@@H]3OC[C@H](O)[C@H](O)[C@H]3O)c(O)c12 [Vaccarin] (10 µM),0
14,Nc1ccc(Sc2nc3ccccc3s2)c(Cl)c1 [KRAS inhibitor-9] (10 µM),0
15,COc1ccc2cc1Oc1ccc(cc1)C[C@H]1c3cc(c(OC)cc3CCN1C)Oc1c(O)c(OC)cc3c1[C@H](C2)N(C)CC3 [Fangchinoline] (2.5 µM),0
16,Nc1nccc(Oc2ccc3c(C(=O)Nc4cccc(C(F)(F)F)c4)cccc3c2)n1 (10 µM),1
17,CN1C(=O)N[C@@H](Cc2c[nH]c3c(Cl)cccc23)C1=O [Necrostatin 2 (S enantiomer)] (10 µM),0
18,Cc1ncc(-c2cc(F)c(O)c(F)c2)cc1-c1cc(F)c(O)c(F)c1 (10 µM),0
19,N=C(NC(=N)N1CCCC1)Nc1ccc(OC(F)(F)F)cc1 (10 µM),0
